Values from PubChem BioAssay AID686938 (Drosophila RNAi Screening Center, 2013)
The deposit covers about 23,000 reagents; below is a random part of those with a known target gene and a result. In the full data, 75 (0.33%) are marked active. 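Raw plate signals without normalisation; calls rest on plate z-scores that were not deposited; ratio present for only 364 wells.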 Reagents against one gene are numbered here. Not stated in the record: the dose of the treatment.

Aim: 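Fly genes required for calcium entry once internal stores are emptied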 (primary screen)
Cells: Drosophila S2R+ cells
Knock-down reagent: long dsRNA against Drosophila genes, about 0.25 µg dsRNA per well, roughly 10,000 cells
Duration: 5 days of knock-down before the calcium assay
Challenge: thapsigargin (SERCA pump blocker) to empty calcium stores; entry signal taken 4 min after adding it
Measurement: 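Per-well fluo-4 fluorescence in two replicates, unnormalised, measured in resting cells and 4 min after store depletion by the SERCA blocker thapsigargin; ratio of the two present in few wells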
Scale: calcium entry signal: higher = stronger calcium signal after store depletion; entry to resting ratio: higher = more calcium entry relative to resting level; resting calcium signal: higher = higher resting calcium signal
Units: calcium entry signal in fluorescence units; resting calcium signal in fluorescence units
Call rule: 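Called when the plate z-score of the entry-to-rest ratio, mean of duplicates, falls below −3; wells with low overall dye signal (Fmax z below −2) or more than five off-targets excluded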
Meaning of the calls: active = strongly reduced calcium entry; inactive = no strong reduction

Or33b (Odorant receptor 33b) — calcium entry signal, replicate 1 = 3.10e7; calcium entry signal, replicate 2 = 1.77e7; resting calcium signal, replicate 1 = 1.44e7; resting calcium signal, replicate 2 = 8.82e6; Call = inactive
CG14805 — calcium entry signal, replicate 1 = 4.60e7; calcium entry signal, replicate 2 = 4.71e7; entry to resting ratio = 1.9; resting calcium signal, replicate 1 = 2.45e7; resting calcium signal, replicate 2 = 2.13e7; Call = inactive
odd (odd skipped) #1 — calcium entry signal, replicate 1 = 2.44e7; calcium entry signal, replicate 2 = 3.85e7; resting calcium signal, replicate 1 = 1.50e7; resting calcium signal, replicate 2 = 1.67e7; Call = inactive
odd (odd skipped) #2 — calcium entry signal, replicate 1 = 3.43e7; calcium entry signal, replicate 2 = 3.73e7; resting calcium signal, replicate 1 = 1.74e7; resting calcium signal, replicate 2 = 1.75e7; Call = inactive
PGRP-LE (Peptidoglycan recognition protein LE) — calcium entry signal, replicate 1 = 4.31e7; calcium entry signal, replicate 2 = 4.30e7; resting calcium signal, replicate 1 = 1.74e7; resting calcium signal, replicate 2 = 2.01e7; Call = inactive
Camp (Cathelicidin-like antimicrobial protein) — calcium entry signal, replicate 1 = 4.85e7; calcium entry signal, replicate 2 = 4.37e7; resting calcium signal, replicate 1 = 1.96e7; resting calcium signal, replicate 2 = 2.13e7; Call = inactive
PolG1 (DNA polymerase gamma subunit 1) — calcium entry signal, replicate 1 = 4.84e7; calcium entry signal, replicate 2 = 3.53e7; resting calcium signal, replicate 1 = 2.17e7; resting calcium signal, replicate 2 = 1.46e7; Call = inactive
Rnf146 (Ring finger protein 146) — calcium entry signal, replicate 1 = 2.83e7; calcium entry signal, replicate 2 = 4.78e7; resting calcium signal, replicate 1 = 1.33e7; resting calcium signal, replicate 2 = 1.96e7; Call = inactive
Npc2d (Niemann-Pick type C-2d) — calcium entry signal, replicate 1 = 2.81e7; calcium entry signal, replicate 2 = 2.20e7; resting calcium signal, replicate 1 = 1.42e7; resting calcium signal, replicate 2 = 1.18e7; Call = inactive
CG16717 — calcium entry signal, replicate 1 = 2.81e7; calcium entry signal, replicate 2 = 4.02e7; resting calcium signal, replicate 1 = 1.56e7; resting calcium signal, replicate 2 = 1.63e7; Call = inactive
Cda4 (Chitin deacetylase-like 4) #1 — calcium entry signal, replicate 1 = 4.69e7; calcium entry signal, replicate 2 = 5.01e7; resting calcium signal, replicate 1 = 2.37e7; resting calcium signal, replicate 2 = 2.08e7; Call = inactive
Cda4 (Chitin deacetylase-like 4) #2 — calcium entry signal, replicate 1 = 5.04e7; calcium entry signal, replicate 2 = 4.88e7; resting calcium signal, replicate 1 = 2.41e7; resting calcium signal, replicate 2 = 2.18e7; Call = inactive
Cda4 (Chitin deacetylase-like 4) #3 — calcium entry signal, replicate 1 = 5.55e7; calcium entry signal, replicate 2 = 5.26e7; resting calcium signal, replicate 1 = 2.72e7; resting calcium signal, replicate 2 = 2.09e7; Call = inactive
